Data on three molecules can be found in PMC8573869.

Sequences of proteins named here, by UniProt entry; tags and fusion partners are left off.
UniProt O95197: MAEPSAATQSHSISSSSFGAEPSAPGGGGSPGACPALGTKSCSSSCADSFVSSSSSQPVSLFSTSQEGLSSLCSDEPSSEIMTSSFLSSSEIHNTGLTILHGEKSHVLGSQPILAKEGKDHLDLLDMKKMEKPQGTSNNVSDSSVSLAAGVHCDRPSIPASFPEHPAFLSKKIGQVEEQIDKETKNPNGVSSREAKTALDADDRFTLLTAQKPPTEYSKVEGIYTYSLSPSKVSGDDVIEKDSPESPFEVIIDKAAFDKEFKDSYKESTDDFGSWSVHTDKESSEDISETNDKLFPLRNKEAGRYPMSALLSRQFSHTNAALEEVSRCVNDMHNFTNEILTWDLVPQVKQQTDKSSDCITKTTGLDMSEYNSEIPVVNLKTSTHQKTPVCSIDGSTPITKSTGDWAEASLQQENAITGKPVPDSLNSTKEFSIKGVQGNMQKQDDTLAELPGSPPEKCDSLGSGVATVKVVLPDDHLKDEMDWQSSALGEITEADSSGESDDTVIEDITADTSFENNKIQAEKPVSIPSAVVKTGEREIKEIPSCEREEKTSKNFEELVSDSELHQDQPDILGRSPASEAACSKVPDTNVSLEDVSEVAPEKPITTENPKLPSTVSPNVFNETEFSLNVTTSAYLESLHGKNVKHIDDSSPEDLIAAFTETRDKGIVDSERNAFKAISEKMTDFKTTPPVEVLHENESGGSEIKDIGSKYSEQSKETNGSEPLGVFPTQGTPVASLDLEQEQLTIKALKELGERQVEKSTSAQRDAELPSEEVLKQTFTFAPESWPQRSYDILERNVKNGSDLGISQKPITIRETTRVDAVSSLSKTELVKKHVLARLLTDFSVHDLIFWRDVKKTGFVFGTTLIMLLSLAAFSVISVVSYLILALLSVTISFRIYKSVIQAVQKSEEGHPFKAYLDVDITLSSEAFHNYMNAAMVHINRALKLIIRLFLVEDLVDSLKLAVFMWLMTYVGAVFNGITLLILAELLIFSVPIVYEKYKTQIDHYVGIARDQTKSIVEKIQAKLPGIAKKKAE

Results are given in words; binding and its absence hold for the method and conditions named. Binding seen in cells or lysates may run through a third protein. Some entries that bind do so weakly or less than the wild type. For some of these results: Where a sequence is shown, tags or fusion partners need not be part of it.

For test [1], the target named is T1, FLAG-tagged dominant-active Rab32Q85L (UniProt Q13637).
T1 sequence: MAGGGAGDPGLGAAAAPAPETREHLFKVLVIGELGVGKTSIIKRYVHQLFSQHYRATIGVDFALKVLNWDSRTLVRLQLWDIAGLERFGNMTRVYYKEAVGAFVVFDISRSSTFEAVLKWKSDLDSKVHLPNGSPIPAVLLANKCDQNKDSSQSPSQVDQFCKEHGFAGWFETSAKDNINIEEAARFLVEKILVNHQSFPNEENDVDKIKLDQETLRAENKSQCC
In words: co-IP; MCF7 cells transfected for 48 h with FLAG-tagged Rab32 constructs; crosslinked with 2 mM DSP 30 min at room temperature, lysed in Chaps buffer (150 mM NaCl, 10 mM Tris pH 7.4, 1 mM EDTA, 1% Chaps); anti-FLAG precipitation on Protein A Sepharose; blot for the endogenous partner.

Test [2] addresses HA-tagged RTN3L (expressed in MCF7 cells) (UniProt O95197). Put plainly: co-IP; MCF7 cells transfected with HA-tagged RTN3L; lysis, anti-HA precipitation; blot for endogenous Rab32 (the legend names no crosslinking).
Test [3] addresses T2, FLAG-tagged dominant-negative Rab32T39N (UniProt Q13637).
T2 sequence: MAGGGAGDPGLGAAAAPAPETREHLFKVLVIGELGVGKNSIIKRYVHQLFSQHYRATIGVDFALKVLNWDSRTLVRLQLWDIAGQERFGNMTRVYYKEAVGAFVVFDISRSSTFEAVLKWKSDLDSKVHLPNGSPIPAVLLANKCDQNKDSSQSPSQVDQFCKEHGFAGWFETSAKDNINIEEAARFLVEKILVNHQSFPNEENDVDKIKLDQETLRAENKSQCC
Put plainly: co-IP; MCF7 cells transfected for 48 h with FLAG-tagged Rab32 constructs; crosslinked with 2 mM DSP 30 min at room temperature, lysed in Chaps buffer (150 mM NaCl, 10 mM Tris pH 7.4, 1 mM EDTA, 1% Chaps); anti-FLAG precipitation on Protein A Sepharose; blot for the endogenous partner.

With “endogenous long reticulon-3 (RTN3L) (from UniProt O95197 1-1032)”, the binding entry in test [1] is given as “binds”.

B1: endogenous Rab32 (protein, UniProt Q13637 1-225)
chain: MAGGGAGDPGLGAAAAPAPETREHLFKVLVIGELGVGKTSIIKRYVHQLFSQHYRATIGVDFALKVLNWDSRTLVRLQLWDIAGQERFGNMTRVYYKEAVGAFVVFDISRSSTFEAVLKWKSDLDSKVHLPNGSPIPAVLLANKCDQNKDSSQSPSQVDQFCKEHGFAGWFETSAKDNINIEEAARFLVEKILVNHQSFPNEENDVDKIKLDQETLRAENKSQCC
For the molecule B1, in test [2], the binding entry is on record as “binds”.

B2: endogenous cell cycle progression 1 (CCPG1) (protein, UniProt Q9ULG6 1-757)
chain: MSENSSDSDSSCGWTVISHEGSDIEMLNSVTPTDSCEPAPECSSLEQEELQALQIEQGESSQNGTVLMEETAYPALEETSSTIEAEEQKIPEDSIYIGTASDDSDIVTLEPPKLEEIGNQEVVIVEEAQSSEDFNMGSSSSSQYTFCQPETVFSSQPSDDESSSDETSNQPSPAFRRRRARKKTVSASESEDRLVAEQETEPSKELSKRQFSSGLNKCVILALVIAISMGFGHFYGTIQIQKRQQLVRKIHEDELNDMKDYLSQCQQEQESFIDYKSLKENLARCWTLTEAEKMSFETQKTNLATENQYLRVSLEKEEKALSSLQEELNKLREQIRILEDKGTSTELVKENQKLKQHLEEEKQKKHSFLSQRETLLTEAKMLKRELERERLVTTALRGELQQLSGSQLHGKSDSPNVYTEKKEIAILRERLTELERKLTFEQQRSDLWERLYVEAKDQNGKQGTDGKKKGGRGSHRAKNKSKETFLGSVKETFDAMKNSTKEFVRHHKEKIKQAKEAVKENLKKFSDSVKSTFRHFKDTTKNIFDEKGNKRFGATKEAAEKPRTVFSDYLHPQYKAPTENHHNRGPTMQNDGRKEKPVHFKEFRKNTNSKKCSPGHDCRENSHSFRKACSGVFDCAQQESMSLFNTVVNPIRMDEFRQIIQRYMLKELDTFCHWNELDQFINKFFLNGVFIHDQKLFTDFVNDVKDYLRNMKEYEVDNDGVFEKLDEYIYRHFFGHTFSPPYGPRSVYIKPCHYSSL
For B2, the binding result in test [1] and in test [3] was “no binding” in each case.
